Our source for the binding values is article PMC5794859.

No constants are given. Whether binding was seen depends on the method and setting.

In this test the target is T1, AtE (cytochrome P450 monooxygenase) (Aspergillus terreus) (UniProt Q0CJ57).
T1 sequence: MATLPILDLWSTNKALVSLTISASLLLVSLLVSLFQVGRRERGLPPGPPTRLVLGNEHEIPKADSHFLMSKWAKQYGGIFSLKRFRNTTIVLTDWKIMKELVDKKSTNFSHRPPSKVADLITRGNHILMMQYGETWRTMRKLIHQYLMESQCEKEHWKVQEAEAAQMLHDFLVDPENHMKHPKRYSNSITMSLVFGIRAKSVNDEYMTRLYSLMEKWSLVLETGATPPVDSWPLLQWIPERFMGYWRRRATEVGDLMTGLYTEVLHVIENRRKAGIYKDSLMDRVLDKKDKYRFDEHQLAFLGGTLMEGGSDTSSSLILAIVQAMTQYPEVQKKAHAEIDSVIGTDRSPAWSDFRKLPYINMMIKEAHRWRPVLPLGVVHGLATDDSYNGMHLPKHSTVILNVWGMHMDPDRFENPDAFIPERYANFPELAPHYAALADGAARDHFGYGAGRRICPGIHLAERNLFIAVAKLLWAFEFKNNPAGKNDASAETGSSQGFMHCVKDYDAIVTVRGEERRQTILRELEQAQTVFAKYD
Nature of the test: two-hybrid; yeast two-hybrid (Y2H) assay on AtG and AtE; details only in Supplementary Fig. S7.

B1: AtG (putative cytochrome P450 monooxygenase) (enzyme, UniProt Q0CJ54 1-157)
chain: MISSVPYRERQSIGGIRSCPHSPASSRFPRVNDSAPTVFQGWDVPIGTPISMNIWNTHYNKDFFPGPTEFWPERWMGEGTRELEKYLVPFGSGSRMCTGQNLSIAEQVLTIATLFRNYELELYQTTKKNVVMASYCMISLPGSESPGIQVKVRKTVQ
On to B1, for which the binding entry was “no binding”.
